In the supplement of paper PMC8007513:
The list shows a part of the results. Repeats are few or missing, and single values can be far off.

The compounds below were run on Saccharomyces cerevisiae BY4743 (assay: growth (OD600) with compound + IPBC relative to untreated control; higher = less growth inhibition). Details: compound concentration: 133 uM; IPBC concentration: 0.5 ug/ml; 20 h.
Protocol: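 NMCCC compounds (133 uM) combined with IPBC (0.5 ug/ml) against Saccharomyces cerevisiae BY4743 in YPD, 96-well plates. Growth was read as OD600 at 20 h and expressed as % of the untreated control. Single pass.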
Work on CCOc1cccc(OCC)c2c(C)[nH+]c(C)c1-2 + CCCCNC(=O)OCC#CI [3-iodo-2-propynyl butylcarbamate (IPBC)] yielded a growth of 80.9%.
Work on CN(Cc1cnn(-c2ccccc2)c1)C(=O)c1cc(S(=O)(=O)N(C)C)ccc1Cl + CCCCNC(=O)OCC#CI [3-iodo-2-propynyl butylcarbamate (IPBC)] yielded a growth of 101%.
For CCOC(=O)Cc1c(O)nc2ccc(C)cc2c1-c1ccccc1 + CCCCNC(=O)OCC#CI [3-iodo-2-propynyl butylcarbamate (IPBC)], the growth was 111%.
CC/1=C/C(=O)N(/C=N1)C(NC(=O)C2=CC=CC=C2)C(=O)C3=CC=CC=C3 (centres undefined) + CCCCNC(=O)OCC#CI [3-iodo-2-propynyl butylcarbamate (IPBC)] was tested, and the growth was 85.7%.
FC(F)(F)C/1=C/N(CC2=CC=CC(=C2)[S](=O)(=O)N3CCOCC3)C(=O)/C(=C1)Cl + CCCCNC(=O)OCC#CI [3-iodo-2-propynyl butylcarbamate (IPBC)] gave a growth of 98.2%.
For CN1/C=C(\C=C/C1=O)/C2=N/N(C(O2)C3=CC=C(Cl)C=C3Cl)C(C)=O (centres undefined) + CCCCNC(=O)OCC#CI [3-iodo-2-propynyl butylcarbamate (IPBC)], the growth was 85.7%.
In the case of CCOC(=O)c1csc(NC(=O)c2cc(C)oc2C)n1 + CCCCNC(=O)OCC#CI [3-iodo-2-propynyl butylcarbamate (IPBC)], the growth was 100%.
CC(C)NC(=O)CCCc1nnc2n(C)c(=O)c3sccc3n12 + CCCCNC(=O)OCC#CI [3-iodo-2-propynyl butylcarbamate (IPBC)] showed a growth of 114%.
Work on CCOC(=O)c1cc(S(=O)(=O)NC2CCN(Cc3ccccc3)CC2)cn1C + CCCCNC(=O)OCC#CI [3-iodo-2-propynyl butylcarbamate (IPBC)] yielded a growth of 94.9%.
CCCNC(=O)c1nn(CC)cc1NC=O + CCCCNC(=O)OCC#CI [3-iodo-2-propynyl butylcarbamate (IPBC)] was tested, and the growth was 88.4%.
COc1ccc(C(=O)CSc2ccc3ccccc3n2)c(OC)c1 + CCCCNC(=O)OCC#CI [3-iodo-2-propynyl butylcarbamate (IPBC)] was tested, and the growth was 85.6%.
In the case of Cc1sc(NC(=O)C2CC2)c(C(=O)OC(C)C(=O)N2CCCC2)c1C (centres undefined) + CCCCNC(=O)OCC#CI [3-iodo-2-propynyl butylcarbamate (IPBC)], the growth was 96.1%.
For O=C(NCCc1cccs1)c1cc(O)nc2ccccc12 + CCCCNC(=O)OCC#CI [3-iodo-2-propynyl butylcarbamate (IPBC)], the growth was 96.2%.
CCc1nnc(NC(=O)CSc2nccn2Cc2ccco2)s1 + CCCCNC(=O)OCC#CI [3-iodo-2-propynyl butylcarbamate (IPBC)] was tested, and the growth was 89.8%.
Work on CCNc1sc(S(C)(=O)=O)nc1S(=O)(=O)c1ccc(Cl)cc1 + CCCCNC(=O)OCC#CI [3-iodo-2-propynyl butylcarbamate (IPBC)] yielded a growth of 112%.
In the case of N#Cc1cccnc1NCc1ccc(Cn2cncn2)cc1 + CCCCNC(=O)OCC#CI [3-iodo-2-propynyl butylcarbamate (IPBC)], the growth was 92.8%.
With CCCCN1\C=N/[S](=O)(=O)C2=CC=C(C=C12)C(F)(F)F + CCCCNC(=O)OCC#CI [3-iodo-2-propynyl butylcarbamate (IPBC)] the growth was 101%.
For CC(C)C(CNS(=O)(=O)c1ccc2c(c1)CCCC2)N1CCOCC1 (centres undefined) + CCCCNC(=O)OCC#CI [3-iodo-2-propynyl butylcarbamate (IPBC)], the growth was 109%.
CC(C)CNC(=O)N1[C@H](c2cccs2)[C@@H](C)C(=O)[C@@H](C)[C@@H]1c1cccs1 + CCCCNC(=O)OCC#CI [3-iodo-2-propynyl butylcarbamate (IPBC)] showed a growth of 90.3%.
With Cc1ccc2oc(SCC(=O)NC(C)(C)C)nc2n1 + CCCCNC(=O)OCC#CI [3-iodo-2-propynyl butylcarbamate (IPBC)] the growth was 104%.
For CCOc1ccc(N(C)S(=O)(=O)c2ccc3c(c2)NC(=O)CC(C)S3)cc1 (centres undefined) + CCCCNC(=O)OCC#CI [3-iodo-2-propynyl butylcarbamate (IPBC)], the growth was 96.1%.
For CCOC(=O)CNC(=O)c1cc(Br)ccc1OCC(C)C + CCCCNC(=O)OCC#CI [3-iodo-2-propynyl butylcarbamate (IPBC)], the growth was 106%.
CCN(CC)S(=O)(=O)c1cc(C(=O)NCc2cn3cc(Cl)ccc3n2)ccc1Cl + CCCCNC(=O)OCC#CI [3-iodo-2-propynyl butylcarbamate (IPBC)] gave a growth of 110%.
CSc1nc(C)c(CCC(=O)OCc2cn3cc(Cl)ccc3n2)c(C)n1 + CCCCNC(=O)OCC#CI [3-iodo-2-propynyl butylcarbamate (IPBC)] showed a growth of 102%.
In the case of CSc1ncc(Cl)c(C(=O)NC2CC3CCC2(C)C3(C)C)n1 (centres undefined) + CCCCNC(=O)OCC#CI [3-iodo-2-propynyl butylcarbamate (IPBC)], the growth was 109%.
With COC(=O)C1=CC=C(CN(C)C(=O)\C2=N\N(C(=O)CC2)C3=CC(=CC=C3C)C)C=C1 + CCCCNC(=O)OCC#CI [3-iodo-2-propynyl butylcarbamate (IPBC)] the growth was 91%.
For O=C(CN(c1cc(C(F)(F)F)ccc1Cl)S(=O)(=O)c1ccccc1)N1CCOCC1 + CCCCNC(=O)OCC#CI [3-iodo-2-propynyl butylcarbamate (IPBC)], the growth was 96.4%.
Compound CCOC(=O)c1nnc2ccc(Cl)nn12 + CCCCNC(=O)OCC#CI [3-iodo-2-propynyl butylcarbamate (IPBC)] has a growth of 85.9%.
Work on CCC(=O)Nc1sc(CC#N)nc1-c1ccc(C)cc1 + CCCCNC(=O)OCC#CI [3-iodo-2-propynyl butylcarbamate (IPBC)] yielded a growth of 92.8%.
Compound Oc1cc(C(F)(F)F)c2c(-c3ccccc3)noc2n1 + CCCCNC(=O)OCC#CI [3-iodo-2-propynyl butylcarbamate (IPBC)] has a growth of 98%.
In the case of Cc1ccc(C)c(C(=O)CSc2nncn2Cc2ccco2)c1 + CCCCNC(=O)OCC#CI [3-iodo-2-propynyl butylcarbamate (IPBC)], the growth was 103%.
CCOC(=O)c1c(NC(=O)CN2CC(C)OC(C)C2)sc(C(=O)NC)c1C (centres undefined) + CCCCNC(=O)OCC#CI [3-iodo-2-propynyl butylcarbamate (IPBC)] was tested, and the growth was 70.6%.
Work on CCOC(=O)c1ncn(-c2ccc(OC)cc2)c1N + CCCCNC(=O)OCC#CI [3-iodo-2-propynyl butylcarbamate (IPBC)] yielded a growth of 80%.
Compound CCOC(=O)c1c(C)[nH]c(C(=O)OCC(=O)N2CCSC2c2ccccc2F)c1C (centres undefined) + CCCCNC(=O)OCC#CI [3-iodo-2-propynyl butylcarbamate (IPBC)] has a growth of 116%.
Cc1ccc(C(NS(=O)(=O)c2ccc(S(C)(=O)=O)cc2)c2cccs2)cc1 (centres undefined) + CCCCNC(=O)OCC#CI [3-iodo-2-propynyl butylcarbamate (IPBC)] showed a growth of 70.8%.
With CCc1nn2c(Cc3c(Cl)cccc3Cl)nnc2s1 + CCCCNC(=O)OCC#CI [3-iodo-2-propynyl butylcarbamate (IPBC)] the growth was 100%.
In the case of COc1cccc(CNC(=O)N2CCCn3nc(C)cc32)c1 + CCCCNC(=O)OCC#CI [3-iodo-2-propynyl butylcarbamate (IPBC)], the growth was 102%.
For COC(=O)c1cc(C)nc2c1cnn2-c1ccc(F)cc1 + CCCCNC(=O)OCC#CI [3-iodo-2-propynyl butylcarbamate (IPBC)], the growth was 101%.
With CCC(C)NC(=O)c1c(-c2ccccc2)nnc2ccc(C)cc12 (centres undefined) + CCCCNC(=O)OCC#CI [3-iodo-2-propynyl butylcarbamate (IPBC)] the growth was 116%.
